Source: PubChem BioAssay AID504808 (Drosophila RNAi Screening Center, 2011)
Test: 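Genes whose loss lifts activity of an E2F-responsive reporter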 (primary screen). Cell system: Drosophila S2 cells. Knock-down reagent: long dsRNA against Drosophila genes. Detection: 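Dual luciferase plate measurements; E2F-specific signal taken as firefly over Renilla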. Direction: E2F firefly: higher = more E2F reporter activity; Renilla normaliser: higher = more normaliser reporter signal. Hit rule: 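a knock-down counted as active when the firefly/Renilla E2F signal rose above 50%, a threshold chosen arbitrarily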.
The screen tested about 21,000 reagents; this is a random part of those that have a named target and a result. In the full data, 18 (0.084%) were called active. 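Raw counts without plate normalisation, one of two replicates; the ratio scores behind the calls were not deposited.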 Entries without a mark were called inactive. Reagents against one gene are numbered here. A plus sign joins genes that one reagent is predicted to hit. No sequences are given here. Not stated in the record: the amount of reagent, the time to read-out.

gene | reagent | E2F firefly, rep 1 | Renilla normaliser, rep 1
Aladin | 1 | 6998 | 792
CG11211 | 1 | 1.11e5 | 4854
mia | 1 | 73139 | 3918
RhoGAP68F | 1 | 70435 | 3283
CG30471 | 1 | 81804 | 3204
pns | 1 | 1.11e5 | 4320
rasp | 1 | 90207 | 3843
CG7560 | 1 | 1.05e5 | 5421
CG14110 | 1 | 1.26e5 | 6696
CG8750 | 1 | 1.28e5 | 6242
Acbp6 | 1 | 99844 | 3168
CG32425 | 1 | 83905 | 5896
CG32425 | 2 | 71321 | 3283
Gbs-70E | 1 | 1.62e5 | 7400
Tsp42A | 1 | 1.24e5 | 4593
CG13670 | 1 | 96970 | 3896
CG11811 | 1 | 1.24e5 | 6739
inc | 1 | 1.27e5 | 6161
inc | 2 | 1862 | 836
emc | 1 | 54598 | 3464
Phs | 1 | 71133 | 3023
ca | 1 | 2000 | 968
ca | 2 | 1.21e5 | 6496
ca | 3 | 1.32e5 | 6892
DnaJ-H | 1 | 1.04e5 | 4486
CG6329 | 1 | 154 | 25
CG12486 (retired record) | 1 | 1.64e5 | 7574
Andorra | 1 | 1.63e5 | 6145
Arp6 | 1 | 8083 | 696
tin | 1 | 1.19e5 | 5564
CG7320 | 1 | 1.55e5 | 8167
CG5500 | 1 | 1.17e5 | 5130
CG3581 | 1 | 1.39e5 | 5973
CG31441 | 1 | 1.55e5 | 6375
CG15537 | 1 | 1.32e5 | 6068
mil | 1 | 1.15e5 | 6199
nSMase | 1 | 77590 | 3177
CG3719 | 1 | 46196 | 3419
CG32432 | 1 | 67158 | 4751
CG32432 | 2 | 85694 | 5906
CG32432 | 3 | 1.36e5 | 8043
Eph | 1 | 77561 | 3879
LManII | 1 | 73879 | 3102
Cyp318a1 | 1 | 1.42e5 | 7599
wac | 1 | 96822 | 3958
CG12355 | 1 | 44611 | 3234
CG12355 | 2 | 1.42e5 | 7751
CG32163 | 1 | 1.30e5 | 4429
CG34166 | 1 | 55828 | 3288
Rat1 | 1 | 99139 | 4395
CG32021 (retired record) | 1 | 66151 | 3719
CG10628 | 1 | 98508 | 4345
Theg | 1 | 69363 | 5327
Dlip2 | 1 | 1.44e5 | 7832
srw | 1 | 96293 | 4265
Nup54 | 1 | 2819 | 206
GLaz | 1 | 1.01e5 | 4148
CG3397 | 1 | 61459 | 3549
Spt6 | 1 | 5458 | 728
mms4 | 1 | 1.39e5 | 5006
e(y)2 | 1 | 1.17e5 | 6248
scpr-A + scpr-C | 1 | 1.45e5 | 7441
CG4318 | 1 | 1.36e5 | 6333
ftz | 1 | 1.31e5 | 6592
Rbp9 | 1 | 1.39e5 | 4581
Rbp9 | 2 | 95606 | 3404
csul | 1 | 1.39e5 | 5080
CG10969 | 1 | 1.33e5 | 6735
Map205 | 1 | 1831 | 984
CG11779 | 1 | 75975 | 4201
MsR1 | 1 | 1.09e5 | 4126
Amnionless | 1 | 1.58e5 | 5461
z | 1 | 1364 | 840
Tango6 | 1 | 64005 | 208
Sc2 | 1 | 67602 | 3087
Erk7 | 1 | 1.25e5 | 5574
Erk7 | 2 | 1.22e5 | 5581
Smug | 1 | 1.16e5 | 6349
sol | 1 | 1.30e5 | 6484
Ankrd49 | 1 | 1.05e5 | 4408
Adk2 | 1 | 82875 | 3663
PTP-ER | 1 | 73209 | 3782
CG15212 | 1 | 98238 | 4058
CG13972 | 1 | 1.02e5 | 7101
